Patent US12060400B2, “Peptides for use in immunotherapy against cancers” (Immatics Biotechnologies GmbH, priority 2018, dated 2024)

Each substance was assayed on HLA molecules of primary tumor and normal tissue samples (cancer entities) (assay: Identification and label-free LC-MS quantitation of HLA-presented tumor-associated peptides on tissue samples). Settings: FIGS. 1A-1J; HLA-A*24 positive normal (N=75) versus tumor samples (N=263), MS signal intensities.
Set-up: species or system human

Substance | over-presentation of the peptide in different cancer tissues
SEQ ID NO.: 60 (RYSPVKDAW; listed as Homo sapiens) | over-presentation
SEQ ID NO.: 74 (NYVLVPTMF; listed as Homo sapiens) | over-presentation
SEQ ID NO.: 202: peptide found in PTPRZ1 (gene looked up) (VYDTMIEKFA; listed as Homo sapiens) | over-presentation

Same assay, conditions: cancer entities on whose tumor tissue samples the HLA-presented peptide was found (LC-MS); abbreviations in the footnotes of Table 8a

Substance | Peptide Presentation on cancer entities
238 (YTCSRAVSLF; listed as Homo sapiens) [compound 238] | NSCLCadeno
209 (DIYVTGGHLF; listed as Homo sapiens) [compound 209] | PRCA
158 (SYLKDPMIV; listed as Homo sapiens) [compound 158] | CLL
347 (AWLIVLLFL; listed as Homo sapiens) [compound 347] | NHL, UEC
78 (TYSKTIALYGF; listed as Homo sapiens) [compound 78] | UBC
364 (KQSQVVFVL; listed as Homo sapiens) [compound 364] | NSCLCsquam, OC, PRCA
288 (MGKGSISFLF; listed as Homo sapiens) [compound 288] | NSCLCadeno
102 (VLASAHILQF; listed as Homo sapiens) [compound 102] | NSCLCadeno
319 (ATATLHLIF; listed as Homo sapiens) [compound 319] | UEC
154 (DYSKQALSL; listed as Homo sapiens) [compound 154] | NSCLCadeno
337 (SHSDHEFLF; listed as Homo sapiens) [compound 337] | UEC
243 (ALFPMGPLTF; listed as Homo sapiens) [compound 243] | CLL
265 (LYQQSDTWSL; listed as Homo sapiens) [compound 265] | HCC, NSCLCadeno
316 (IWAERIMF; listed as Homo sapiens) [compound 316] | NSCLCsquam
296 (YQRPDLLLF; listed as Homo sapiens) [compound 296] | CLL, MEL
69 (KWFDSHIPRW; listed as Homo sapiens) [compound 69] | GBC
283 (SYIVDGKII; listed as Homo sapiens) [compound 283] | PRCA
166 (MMALWSLLHL; listed as Homo sapiens) [compound 166] | NSCLCsquam
41 (IYFATQVVF; listed as Homo sapiens) [compound 41] | PRCA
121 (RRYFGEKVAL; listed as Homo sapiens) [compound 121] | PRCA
320 (EVYQKIILKF; listed as Homo sapiens) [compound 320] | GBC
257 (MLILFFSTI; listed as Homo sapiens) [compound 257] | MEL
50 (RYFDENIQKF; listed as Homo sapiens) [compound 50] | OSCAR
270 (GTGKLFWVF; listed as Homo sapiens) [compound 270] | PACA
373 (IWDALERTF; listed as Homo sapiens) [compound 373] | CLL, CRC, GBC, GBM, GC, HCC, HNSCC, MEL, NHL, NSCLCadeno, NSCLCsquam, OC, OSCAR, PRCA
254 (KQHAWLPLTI; listed as Homo sapiens) [compound 254] | NHL

Substance | Peptide Presentation on cancer entities
379 (KLPTEWNVL; listed as Homo sapiens) [compound 379] | CCC, CLL, CRC, GC, HCC, NHL, NSCLCadeno, NSCLCother, OSCAR, RCC, UEC
358 (IYANVTEMLL; listed as Homo sapiens) [compound 358] | OSCAR
46 (IYPDSIQEL; listed as Homo sapiens) [compound 46] | HCC
91 (KQQVVKFLI; listed as Homo sapiens) [compound 91] | PRCA
193 (KYKPVALQCIA; listed as Homo sapiens) [compound 193] | NSCLCadeno
368 (AYFVAMHLF; listed as Homo sapiens) [compound 368] | GBC, GBM, HNSCC, MEL, NHL, NSCLCadeno, NSCLCother, NSCLCsquam, OC, SCLC, UEC
271 (INGDLVFSF; listed as Homo sapiens) [compound 271] | CLL
235 (VYISDVSVY; listed as Homo sapiens) [compound 235] | NSCLCadeno
60 (RYSPVKDAW; listed as Homo sapiens) [compound 60] | CCC, GBC, NHL, NSCLCadeno, NSCLCother, NSCLCsquam, OC, OSCAR
175 (SYFEYRRLL; listed as Homo sapiens) [compound 175] | NSCLCadeno
370 (TQMDVKLVF; listed as Homo sapiens) [compound 370] | GBC, GC, HCC, NHL, NSCLCadeno, NSCLCsquam, OSCAR, UBC, UEC
104 (GYGLTRVQPF; listed as Homo sapiens) [compound 104] | NSCLCadeno
234 (RYKMLIPF; listed as Homo sapiens) [compound 234] | PRCA
218 (FYFYNCSSL; listed as Homo sapiens) [compound 218] | UEC
245 (VLPLHFLPF; listed as Homo sapiens) [compound 245] | RCC
132 (TFEGATVTL; listed as Homo sapiens) [compound 132] | CRC, MEL, NHL
229 (CAMPVAMEF; listed as Homo sapiens) [compound 229] | NHL
135 (KYKQHFPEI; listed as Homo sapiens) [compound 135] | HCC
348 (RSWENIPVTF; listed as Homo sapiens) [compound 348] | CCC
339 (KQVIGIHTF; listed as Homo sapiens) [compound 339] | CLL, GBC, GBM, GC, RCC
64 (QFSHVPLNNF; listed as Homo sapiens) [compound 64] | NSCLCsquam
37 (ISFSDTVNVW; listed as Homo sapiens) [compound 37] | RCC
125 (LYYGSILYI; listed as Homo sapiens) [compound 125] | MEL
126 (YSLLDPAQF; listed as Homo sapiens) [compound 126] | CRC, NSCLCadeno, PACA, PRCA, UEC
168 (LSSPVHLDF; listed as Homo sapiens) [compound 168] | CRC, HCC, NHL, NSCLCadeno, OSCAR, RCC, UEC
92 (RALTETIMF; listed as Homo sapiens) [compound 92] | UEC
